Results reported in publication PMC3662672.
Results are given in words; binding and its absence hold for the method and conditions named. In cells and extracts the contact can be indirect.

Chains of the proteins cited; added tags and fusions are not shown.
UniProt Q9Y6K9: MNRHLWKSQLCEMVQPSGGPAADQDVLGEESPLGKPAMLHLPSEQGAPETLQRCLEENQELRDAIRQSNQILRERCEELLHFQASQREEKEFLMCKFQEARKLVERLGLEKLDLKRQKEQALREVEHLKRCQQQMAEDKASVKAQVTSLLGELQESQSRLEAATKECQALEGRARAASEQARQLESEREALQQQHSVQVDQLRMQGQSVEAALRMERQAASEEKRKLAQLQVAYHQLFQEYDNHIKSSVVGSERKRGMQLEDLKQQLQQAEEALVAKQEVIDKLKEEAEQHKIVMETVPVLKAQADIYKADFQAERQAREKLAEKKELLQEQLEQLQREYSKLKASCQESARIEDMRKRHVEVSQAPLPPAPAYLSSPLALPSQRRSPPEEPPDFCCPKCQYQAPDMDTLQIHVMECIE

Target: Flag-NEMO (NF-kappa-B essential modulator) (UniProt Q9Y6K9)
Assay: co-IP; HEK293T cells co-transfected with UCHL1 and Flag-TRAF3, Flag-TRAF6 or Flag-NEMO; lysed after 48 h in NP40 buffer; immunoprecipitation with Flag antibody and protein A/G agarose at 4°C; co-precipitating UCHL1 detected by western blot

ubiquitin carboxyl-terminal hydrolase L1 (UCHL1) (from UniProt P09936-1 1-223) (enzyme)
binding: no binding
